According to the supplement of paper PMC7877785:
± gives the uncertainty stated by the source. The uncertainty is large for many entries.

Experiment: self-splicing fitness, log relative to wild type (ln ratio); higher = more splicing; Tetrahymena group I intron in knt gene, E. coli kanamycin selection, DiMSum; sequences stand for … in CUCUCU…GGAGGGAAAAGUUAUCAGGCAUGCACCUGGUAGCUAGUCUUUAAACCAAUAGAUUGCAUCGGUUUAAAAGGCAAGACCGUCAAAUUGCGGGAAAGGGGUCAACAGCCGUUCAGUACCAAGUCUCAGGGGAAACUUUGAGAUGGCCUUGCAAAGGGUAUGGUAAUAAGCUGACGGACAUGGUCCUAACCACGCAGCCAAGUCCUAAGUCAACAGAUCUUCUGUUGAUAUGGAUGCAGUUCACAGACUAAAUGUCGGUCGGGGAAGAUGUAUUCUUCUCAUAAGAUAUAGUCGGACCUCUCCUUAAUGGGAGCUAGCGGAUGAAGUGAUGCAACACUGGAGCCGCUGGGAACUAAUUUGUAUGCGAAAGUAUAUUGAUUAGUUUUGGAGUACUCGUGGUCG
Method in brief: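 DiMSum derived fitness as the error-weighted combination of fold changes across replicates, kanamycin versus no kanamycin, normalised to wild type. E. coli BL21(DE3) held the library, which randomised all eight P1ex-region intron nucleotides within the knt kanamycin-resistance gene on pET-22b(+). Six replicate transformations grew overnight at 37°C or 30°C on LB agar with or without 25 μg/mL kanamycin, also containing 100 μg/mL carbenicillin, 50 μM IPTG and 0.2% rhamnose, and pooled colonies were amplicon-sequenced on an Illumina HiSeq 2500.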

Row | Sequence | self-splicing fitness (ln) (30 °C) | self-splicing fitness (ln) (37 °C)
1 | CCCUAGCAAUAUUACGUUUA | -2.91 ± 0.14 | -2.16 ± 0.16
2 | GUUGAGCAAUAUUACGGUCG | -3.56 ± 0.52 | –
3 | GCGAAGCAAUAUUACGCCAC | -4.49 ± 1 | –
4 | AGAUAGCAAUAUUACGCAGA | -2.95 ± 0.18 | -2.32 ± 0.2
5 | GUGGAGCAAUAUUACGCAAC | -2.53 ± 0.77 | -1.39 ± 1.2
6 | UGGUAGCAAUAUUACGUCUC | -3.22 ± 0.54 | -2.49 ± 0.64
7 | CCUGAGCAAUAUUACGUCGC | -3.84 ± 0.74 | –
8 | AUUUAGCAAUAUUACGGGGA | -2.36 ± 0.78 | -1.94 ± 0.66
9 | UAGCAGCAAUAUUACGAAGC | -4.59 ± 0.59 | -2.18 ± 1.1
10 | UCACAGCAAUAUUACGAAGA | -1.18 ± 0.085 | -1.09 ± 0.093
11 | CUUUAGCAAUAUUACGAGAA | -1.75 ± 0.63 | –
12 | AGGGAGCAAUAUUACGUUGC | -3.42 ± 0.6 | –
13 | CAUGAGCAAUAUUACGGUCU | -3.11 ± 0.28 | -1.2 ± 0.18
14 | GUGUAGCAAUAUUACGAGUA | -3.87 ± 0.52 | –
15 | CACGAGCAAUAUUACGCAUC | – | -2.67 ± 1.1
16 | GAUGAGCAAUAUUACGAAUA | -2.91 ± 0.75 | -1.37 ± 0.71
17 | UACGAGCAAUAUUACGUUCC | – | -2.3 ± 1.1
18 | GCCAAGCAAUAUUACGUUUC | -2.86 ± 0.18 | -0.805 ± 0.12
19 | GGUUAGCAAUAUUACGUUGA | -2 ± 0.2 | -1.54 ± 0.17
20 | UAAGAGCAAUAUUACGCACC | -3.21 ± 1.1 | –
21 | UUCGAGCAAUAUUACGGGGU | – | -3.34 ± 0.61

Row | Sequence | self-splicing fitness (ln) (30 °C) | self-splicing fitness (ln) (37 °C)
22 | CACAAGCAAUAUUACGAUCA | -2.43 ± 0.11 | -1.55 ± 0.12
23 | AGUGAGCAAUAUUACGUCAC | -3.19 ± 0.67 | -2.96 ± 0.75
24 | GUAGAGCAAUAUUACGCCGC | -2.44 ± 1.1 | -1.38 ± 0.84
25 | ACACAGCAAUAUUACGUGGG | -3.5 ± 0.098 | -1.88 ± 0.087
26 | AGAGAGCAAUAUUACGCGGG | -2.33 ± 0.78 | -0.234 ± 1.4
27 | CCGAAGCAAUAUUACGCCCU | -4.8 ± 1 | –
28 | UGCGAGCAAUAUUACGCGCU | – | -3.53 ± 1
29 | UAAUAGCAAUAUUACGAUCC | – | -3.08 ± 0.74
30 | GUGAAGCAAUAUUACGAACC | – | 1.11 ± 1.1
31 | CUACAGCAAUAUUACGAUCA | -1.82 ± 0.17 | -1.49 ± 0.2
32 | GCUUAGCAAUAUUACGCCUC | 0.274 ± 0.64 | -0.539 ± 0.56
33 | CGUGAGCAAUAUUACGAAUA | -2.8 ± 0.28 | -2.87 ± 0.32
34 | CCGUAGCAAUAUUACGCACU | – | -0.778 ± 1.4
35 | GCUGAGCAAUAUUACGAUCG | -2.65 ± 0.51 | –
36 | UAAGAGCAAUAUUACGAAAA | -2.39 ± 0.64 | –
37 | GCCAAGCAAUAUUACGGGCC | -4.6 ± 0.51 | -2.13 ± 0.32
38 | CUAUAGCAAUAUUACGAGCU | – | -1.79 ± 1.2
39 | GGGAAGCAAUAUUACGGUCC | -1.23 ± 0.91 | -0.44 ± 1.4
40 | AAUGAGCAAUAUUACGGCAA | -2.55 ± 0.34 | -1.85 ± 0.35
41 | CGCGAGCAAUAUUACGUCAC | -3.34 ± 0.5 | -1.73 ± 0.64
42 | UGGGAGCAAUAUUACGUCAC | – | -1.38 ± 0.63

Row | Sequence | self-splicing fitness (ln) (30 °C) | self-splicing fitness (ln) (37 °C)
43 | CGGGAGCAAUAUUACGCACC | – | -1.29 ± 1.2
44 | GGCGAGCAAUAUUACGGGGG | -3.33 ± 0.2 | -2.64 ± 0.28
45 | GAAGAGCAAUAUUACGAAUG | – | -2.29 ± 1.1
46 | AGGAAGCAAUAUUACGAGAC | -2.25 ± 1.1 | -1.54 ± 0.71
47 | CUCGAGCAAUAUUACGAACG | -4.16 ± 1 | -1.38 ± 0.63
48 | GAAAAGCAAUAUUACGACAU | -0.184 ± 0.011 | 0.116 ± 0.032
49 | UCACAGCAAUAUUACGGCCC | -3.44 ± 0.45 | -1.82 ± 0.44
50 | GCGGAGCAAUAUUACGGGUC | -5.62 ± 1 | -1.94 ± 0.55
51 | UCGCAGCAAUAUUACGCAAG | -3.01 ± 0.17 | -1.69 ± 0.25
52 | UGAGAGCAAUAUUACGAAAA | -3.75 ± 0.62 | –
53 | UUGUAGCAAUAUUACGGGGA | -1.98 ± 0.26 | -0.346 ± 0.17
54 | AAGGAGCAAUAUUACGCCAA | -4.19 ± 0.46 | -3.11 ± 0.3
55 | CAGAAGCAAUAUUACGUCAU | -5.39 ± 0.5 | -2.9 ± 0.25
56 | CUUUAGCAAUAUUACGGAGU | -2.36 ± 0.52 | –
57 | AAUGAGCAAUAUUACGAGAG | -4.23 ± 0.75 | –
58 | GCCUAGCAAUAUUACGCCUA | -1.3 ± 0.57 | –
59 | ACUUAGCAAUAUUACGCAUA | -1.74 ± 0.12 | -1.42 ± 0.14
60 | GAUGAGCAAUAUUACGAAAG | -2.38 ± 0.51 | –
61 | AAGGAGCAAUAUUACGGUCA | -3.57 ± 0.74 | –

Single values from the entries so far:
For self-splicing fitness (ln) (37 °C), AUUUAGCAAUAUUACGGGGA has the entry -1.94 ± 0.66
For self-splicing fitness (ln) (30 °C), CCGAAGCAAUAUUACGCCCU has the entry -4.8 ± 1
For self-splicing fitness (ln) (37 °C), UUCGAGCAAUAUUACGGGGU has the entry -3.34 ± 0.61
For self-splicing fitness (ln) (37 °C), GCCAAGCAAUAUUACGUUUC has the entry -0.805 ± 0.12
For self-splicing fitness (ln) (37 °C), GUGAAGCAAUAUUACGAACC has the entry 1.11 ± 1.1
For self-splicing fitness (ln) (37 °C), CGUGAGCAAUAUUACGAAUA has the entry -2.87 ± 0.32
